Laboratory results taken from publication doi:10.1101/2025.01.13.632693.
Like-named read-outs stand apart in the source and are kept apart here. No constants are given. Whether binding was seen depends on the method and setting. In cells and extracts the contact can be indirect. Some binding calls cover weakened binding; strength is not graded here.

Chains of the proteins cited; added tags and fusions are not shown.
UniProt Q86WV6: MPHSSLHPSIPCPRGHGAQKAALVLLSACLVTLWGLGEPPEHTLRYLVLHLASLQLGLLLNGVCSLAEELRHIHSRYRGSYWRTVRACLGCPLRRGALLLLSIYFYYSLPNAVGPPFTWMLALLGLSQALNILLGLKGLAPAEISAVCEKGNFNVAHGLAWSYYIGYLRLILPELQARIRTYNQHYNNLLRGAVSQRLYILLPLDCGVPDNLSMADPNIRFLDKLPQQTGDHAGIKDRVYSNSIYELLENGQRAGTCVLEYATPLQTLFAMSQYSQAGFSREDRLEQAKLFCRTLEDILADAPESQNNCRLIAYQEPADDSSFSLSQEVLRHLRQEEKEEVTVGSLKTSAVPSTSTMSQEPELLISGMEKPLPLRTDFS

Assays:
Test in all cases: co-IP
[1] = molecular target: endogenous STING (human (endogenous in ARPE-19 and SHSY5Y)) (UniProt Q86WV6)
[2] = molecular target: FLAG-STING (full-length) (UniProt Q86WV6)
[3] = molecular target: endogenous STING (human (endogenous in ARPE-19 and SHSY5Y)) (UniProt Q86WV6); remark: listed apart in the source

Measured: binding

B1: endogenous Midnolin (protein, UniProt Q504T8 1-468)
chain: MEPQPGGARSCRRGAPGGACELGPAAEAAPMSLAIHSTTGTRYDLAVPPDETVEGLRKRLSQRLKVPKERLALLHKDTRLSSGKLQEFGVGDGSKLTLVPTVEAGLMSQASRPEQSVMQALESLTETQVSDFLSGRSPLTLALRVGDHMMFVQLQLAAQHAPLQHRHVLAAAAAAAAARGDPSIASPVSSPCRPVSSAARVPPVPTSPSPASPSPITAGSFRSHAASTTCPEQMDCSPTASSSASPGASTTSTPGASPAPRSRKPGAVIESFVNHAPGVFSGTFSGTLHPNCQDSSGRPRRDIGTILQILNDLLSATRHYQGMPPSLAQLRCHAQCSPASPAPDLAPRTTSCEKLTAAPSASLLQGQSQIRMCKPPGDRLRQTENRATRCKVERLQLLLQQKRLRRKARRDARGPYHWSPSRKAGRSDSSSSGGGGSPSEASGLGLDFEDSVWKPEVNPDIKSEFVVA
binds: all assays above
